# Some of the results follow. Further columns of the screen follow, without active or inactive calls. The list favours compounds with an active or inconclusive main result. Potencies come from curve fits of mixed quality, noted in brackets. Peptide text beside a SMILES is read from it. * marks the point of attachment. Cbz = O=C(OCc1ccccc1)*
# Test: qHTS Assay to Find Inhibitors of Chronic Active B-Cell Receptor Signaling
# Settings: ABC-DLBCL IkBa-CBG/CBR reporter, luminescence ratio (green luciferase fused to IkBa over red control in TMD8 lymphoma cells), 4 h
# Outline: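 TMD8 ABC-DLBCL cells carrying doxycycline-inducible green luciferase fused to IkappaBalpha plus unfused red luciferase were exposed to compounds (up to 46 uM) for 4 hrs at 37C. Activity came from the overlap-corrected green/red luminescence ratio.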
# [1] = measured here: CBR red luminescence, cell number
# [2] = measured here: IkBa-CBG green luminescence
Compound,AC50 [1],AC50 [2]
N#CCSc1nnc(-c2ccccc2O)n1CCc1ccccc1,"29.1 µM [falling, single point]","18.4 µM [rising, partial curve, poor fit]"
O=C(NC1CCCCC1)C(c1ccccc1)N1CCCC1 (configuration not stated),"6.51 µM [falling, single point]",
O=C(CN1CCN(CC(=O)Nc2ccc(-c3ccccc3)cc2)CC1)Nc1ccc(F)cc1,"0.316 µM [falling, full curve, poor fit]",
CN(Cc1ccccc1F)Cc1cc(=O)oc2cc(O)c(Cl)cc12,"1.26 µM [rising, full curve, poor fit]",
COc1cc(Br)cc2cc(C(=O)N3CCN(c4ccccn4)CC3)c(=O)oc12,"0.146 µM [rising, full curve, poor fit]",
COC(=O)C(CO)NC(=O)C(C)NC(=O)CNC(=O)OCc1ccccc1 (stereo not drawn) (Cbz-Gly-Ala-Ser-OMe; configuration not given here),"35.5 µM [rising, single point]",
CC(C)CN(CC(C)C)C(=O)CS(=O)(=O)Cc1ccccc1,"1.3 µM [rising, full curve]",
O=c1[nH]c(CN2CCN(c3ccccc3)CC2)nc2ccccc12,"20.6 µM [rising, single point]",
CCOC(=O)c1cnn(-c2ccc(C(=O)Nc3ccc(OC(F)(F)F)cc3)cc2)c1N,"7.94 µM [rising, partial curve, poor fit]",
O=C(Nc1ccc(Br)cc1)Nc1cnccn1,"1.26 µM [rising, full curve, poor fit]",
C=CCn1c(SCC(=O)O)nnc1-c1ccc(C(C)(C)C)cc1,,"11.2 µM [falling, partial curve, poor fit]"
CCc1cc2c(-c3ccccc3)cc(=O)oc2cc1OCC(=O)NCC1CCC(C(=O)O)CC1 (configuration not stated),"3.55 µM [falling, partial curve, poor fit]",
O=C(NCCc1ccccc1)c1ccccc1Cl,"22.4 µM [falling, single point]",
CC1CCc2nn(CC(=O)NC3CCCC(C)C3C)cc2C1 (configuration not stated),"6.51 µM [rising, single point]",
Nc1ccc(N2CCN(c3ccccc3)CC2)c(F)c1,"35.5 µM [rising, partial curve, poor fit]",
CCCCCSc1ncccc1C(=O)O,"0.631 µM [rising, full curve]",
COc1cccc(NC(=S)N(CCc2ccc(OC)c(OC)c2)Cc2ccccn2)c1,"1.58 µM [rising, partial curve, poor fit]",
CN(C)S(=O)(=O)c1cccc(-c2csc(=Nc3ccccc3)n2CCCN2CCOCC2)c1,"7.94 µM [falling, partial curve, poor fit]",
Cc1ccc(N2CCN(S(=O)(=O)c3ccc4oc(=O)ccc4c3)CC2)c(C)c1,"22.4 µM [falling, single point]",
CCOC(=O)C1CCCN(Cc2cc(=O)oc3cc(C)ccc23)C1 (configuration not stated),"35.5 µM [falling, single point]",

Compound,AC50 [1],AC50 [2]
Fc1ccccc1N1CCN(Cc2nc(-c3ccc(Cl)cc3Cl)no2)CC1,"32.6 µM [rising, single point]",
COc1ccc(S(=O)(=O)NCC2CCCN(C(=O)CC3CCCC3)C2)cc1 (configuration not stated),"11.2 µM [rising, partial curve, poor fit]",
CCC(CC)COC(=O)C1=C(C)NC(=O)NC1c1cccc([N+](=O)[O-])c1 (configuration not stated),"11.2 µM [falling, single point]",
Cc1cc2c(s1)c1cnn(-c3ccccc3)c(=O)c1n2C,"0.411 µM [rising, partial curve, poor fit]",
COc1cc(C(=O)N/N=C/c2ccccn2)cc(OC)c1OC,"31.6 µM [rising, single point]","22.4 µM [falling, single point]"
COc1cccc(-c2ccc(NC(=O)C3CCCN(Cc4cnn(C(C)C)c4)C3)cc2)c1 (configuration not stated),"12.6 µM [falling, partial curve]",
COc1ccc(N(C(=O)CCl)C(C(=O)NCCc2ccccc2)c2cccs2)cc1Cl (configuration not stated),"11.6 µM [falling, partial curve]",
CC(C)(C)n1cnc2cc(NCc3cccs3)ccc21,"14.1 µM [falling, single point]",
COc1cc(-c2nc(-c3ccc4c(c3)-c3ccccc3S4(=O)=O)c(-c3ccccc3)[nH]2)cc(OC)c1O,"1.46 µM [falling, full curve, poor fit]",
COc1cccc(NC(=O)c2ccc(NC(C)=O)cc2)c1,"1.16 µM [falling, partial curve, poor fit]",
NC(=O)Nc1ccc(C(=O)OCC(=O)Nc2sccc2C(N)=O)cc1,"14.6 µM [falling, partial curve, poor fit]",
NS(=O)(=O)c1cccc(NC(=O)COC(=O)c2cc([N+](=O)[O-])ccc2N2CCCC2)c1,,"11.6 µM [falling, partial curve, poor fit]"
Cc1ccc(-n2ncc3c(NCc4ccco4)ncnc32)cc1C,,"4.47 µM [rising, full curve, poor fit]"
CCC(CC)=NNc1cccc([N+](=O)[O-])c1,"29.1 µM [rising, partial curve, poor fit]",
COC(=O)c1ccccc1S(=O)c1snnc1C (configuration not stated),"8.91 µM [rising, partial curve, poor fit]",
CC[n+]1ccc(/C=C/c2ccc(N(C)C)cc2)c2ccccc21,"12.6 µM [rising, partial curve]","11.2 µM [rising, partial curve, poor fit]"
COc1ccc(C(=O)NCCN2CCOCC2)c(OC)c1OC,"10 µM [rising, partial curve, poor fit]",
COc1ccc(-c2nc3ccccc3s2)cc1O,"16.4 µM [falling, single point]",
Cc1nn(C)c(C)c1CN(C)C(=O)C1c2ccccc2Oc2ccccc21,"0.0326 µM [falling, full curve, poor fit]",

# Of the compounds above, two have bromine.
Compound,AC50 [1],AC50 [2]
COc1cc(Br)cc2cc(C(=O)N3CCN(c4ccccn4)CC3)c(=O)oc12,"0.146 µM [rising, full curve, poor fit]",
O=C(Nc1ccc(Br)cc1)Nc1cnccn1,"1.26 µM [rising, full curve, poor fit]",

# — PubChem BioAssay AID493014 (National Center for Advancing Translational Sciences (NCATS), 2011)
